Data reported in paper PMC6488192 (2019).
These are yes or no findings as the source states them, for the method shown. In cells and extracts the contact can be indirect. Some entries that bind do so weakly or less than the wild type. For part of these data: Where a sequence is shown, tags or fusion partners need not be part of it.

Legend:
[1] = target: T1, ^H2F1 wild type with TAP tag (T. brucei) (UniProt Q585P3); assay: pull-down; TAP-tagged bait recovered on Dynabeads IgG from whole-cell or mitochondria-enriched T. brucei extract (~2 mg protein, with RNase inhibitor); washes 150 mM NaCl, 1 mM EDTA, 10 mM MgOAc, 0.1% NP-40, 25 mM Tris pH 8.0; endogenous partners by Western blot, REL1 by radiolabelled self-adenylation; mutants normalised to WT
T1 sequence: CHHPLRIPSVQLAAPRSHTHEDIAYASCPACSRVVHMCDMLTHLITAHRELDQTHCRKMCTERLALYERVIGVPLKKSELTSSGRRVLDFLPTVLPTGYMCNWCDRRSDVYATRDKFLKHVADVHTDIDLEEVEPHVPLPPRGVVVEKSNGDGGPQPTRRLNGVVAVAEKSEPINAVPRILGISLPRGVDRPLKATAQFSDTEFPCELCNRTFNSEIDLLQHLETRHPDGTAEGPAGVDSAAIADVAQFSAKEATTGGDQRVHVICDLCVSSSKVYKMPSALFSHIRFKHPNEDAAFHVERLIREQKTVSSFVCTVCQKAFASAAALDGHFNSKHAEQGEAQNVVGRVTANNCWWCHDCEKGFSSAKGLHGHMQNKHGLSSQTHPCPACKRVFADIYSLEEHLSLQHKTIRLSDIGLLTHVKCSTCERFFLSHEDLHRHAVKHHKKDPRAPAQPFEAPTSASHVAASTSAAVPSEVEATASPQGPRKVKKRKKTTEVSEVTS

[2] = target: T1, ^H2F1 wild type with TAP tag (T. brucei); assay: pull-down; IgG pulldown of TAP-tagged ^H2F1 from extract treated with RNase A/T1 mix, 20 U/mg protein in the input extract and again on the beads; Western blot
[3] = target: T1, ^H2F1 wild type with TAP tag (T. brucei); assay: pull-down; TAP-tagged bait recovered on Dynabeads IgG from whole-cell or mitochondria-enriched T. brucei extract (~2 mg protein, with RNase inhibitor); washes 150 mM NaCl, 1 mM EDTA, 10 mM MgOAc, 0.1% NP-40, 25 mM Tris pH 8.0; endogenous partners by Western blot, REL1 by radiolabelled self-adenylation; mutants normalised to WT; remark: listed apart in the source
[4] = target: RNA Editing Helicase 2 (REH2) wild type with TAP tag (T. brucei) (UniProt Q581T1); assay: as above
[5] = target: REH2 ΔOB with TAP tag (T. brucei) (UniProt Q581T1); assay: as above
[6] = target: REH2 ΔAOB with TAP tag (T. brucei) (UniProt Q581T1); assay: as above

Measured: binding

RNA Editing Helicase 2 (REH2), endogenous (from UniProt Q581T1 31-2167) (enzyme)
binds: [1]

B1: REH2-Associated Factor 1 (^H2F1), endogenous (protein, UniProt Q585P3 23-524)
chain: CHHPLRIPSVQLAAPRSHTHEDIAYASCPACSRVVHMCDMLTHLITAHRELDQTHCRKMCTERLALYERVIGVPLKKSELTSSGRRVLDFLPTVLPTGYMCNWCDRRSDVYATRDKFLKHVADVHTDIDLEEVEPHVPLPPRGVVVEKSNGDGGPQPTRRLNGVVAVAEKSEPINAVPRILGISLPRGVDRPLKATAQFSDTEFPCELCNRTFNSEIDLLQHLETRHPDGTAEGPAGVDSAAIADVAQFSAKEATTGGDQRVHVICDLCVSSSKVYKMPSALFSHIRFKHPNEDAAFHVERLIREQKTVSSFVCTVCQKAFASAAALDGHFNSKHAEQGEAQNVVGRVTANNCWWCHDCEKGFSSAKGLHGHMQNKHGLSSQTHPCPACKRVFADIYSLEEHLSLQHKTIRLSDIGLLTHVKCSTCERFFLSHEDLHRHAVKHHKKDPRAPAQPFEAPTSASHVAASTSAAVPSEVEATASPQGPRKVKKRKKTTEVSEVTS
not listed: [1]
binds: all other assays above
